Reference: PMC11322209
No constants are given. Whether binding was seen depends on the method and setting. Binding seen in cells or lysates may run through a third protein. Some binding calls cover weakened binding; strength is not graded here. Tags and fused reporters may be left off the sequences shown.

The chains behind the UniProt entries cited, without tags or fusion partners.
UniProt P11142: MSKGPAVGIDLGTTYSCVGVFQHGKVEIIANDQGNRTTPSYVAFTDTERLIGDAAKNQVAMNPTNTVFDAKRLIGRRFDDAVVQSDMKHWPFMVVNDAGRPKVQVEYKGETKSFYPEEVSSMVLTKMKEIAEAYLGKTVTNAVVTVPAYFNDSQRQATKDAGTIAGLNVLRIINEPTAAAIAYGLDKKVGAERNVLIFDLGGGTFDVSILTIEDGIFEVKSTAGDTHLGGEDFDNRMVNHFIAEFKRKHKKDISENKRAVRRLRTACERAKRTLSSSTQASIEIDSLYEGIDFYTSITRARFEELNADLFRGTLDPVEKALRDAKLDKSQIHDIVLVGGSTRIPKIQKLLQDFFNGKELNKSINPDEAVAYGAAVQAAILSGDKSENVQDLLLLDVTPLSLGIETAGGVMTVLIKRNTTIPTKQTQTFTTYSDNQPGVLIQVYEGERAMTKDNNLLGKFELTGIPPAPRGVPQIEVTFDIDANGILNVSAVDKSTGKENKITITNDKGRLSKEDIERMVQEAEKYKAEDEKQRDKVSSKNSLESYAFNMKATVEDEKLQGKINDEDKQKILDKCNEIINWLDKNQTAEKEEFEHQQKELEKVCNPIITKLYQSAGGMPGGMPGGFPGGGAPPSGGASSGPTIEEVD

Target: T1, Flag-tagged GPX8 (Glutathione Peroxidase 8) (UniProt Q8TED1)
T1 sequence: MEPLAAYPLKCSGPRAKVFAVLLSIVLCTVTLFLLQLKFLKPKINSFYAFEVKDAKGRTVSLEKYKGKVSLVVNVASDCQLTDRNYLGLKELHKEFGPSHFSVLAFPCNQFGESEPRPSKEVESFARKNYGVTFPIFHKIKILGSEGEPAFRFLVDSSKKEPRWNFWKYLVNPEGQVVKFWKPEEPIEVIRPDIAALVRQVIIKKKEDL
Assay: co-IP; lysates of transfected cells, FLAG antibody (1:200) on Protein G-Sepharose beads, 6 h at 4 °C, beads washed three times with lysis buffer, western blot

binding: binds
Substance: 71-kDa heat shock cognate protein (Hsc70) (from UniProt P11142 1-646)
